Experimental data taken from paper PMC7819943, “Rice protein-binding microarrays: a tool to detect cis-acting elements near promoter regions in rice”.
The other results are listed elsewhere or left out.

What follows are sequences tested against T1, OsSMF1 (Oryza sativa, UniProt Q6ZLB0 1-436) (assay: protein-binding microarray (RPBM); PBS, 2% BSA, 51.3 ng/ul salmon testes DNA, 50 uM zinc acetate, 200 nM TF, 25 C, 1 h; high values mean tight binding). Details: protein: recombinant; tags: N-terminal polyhistidine and DsRed monomer fusion (pET32a); chain copies: 2; label: CyDye5-dUTP incorporated in the synthesized complementary strand; 3' TTTTT single-stranded linker to array surface; dsDNA, one strand shown.
T1 sequence: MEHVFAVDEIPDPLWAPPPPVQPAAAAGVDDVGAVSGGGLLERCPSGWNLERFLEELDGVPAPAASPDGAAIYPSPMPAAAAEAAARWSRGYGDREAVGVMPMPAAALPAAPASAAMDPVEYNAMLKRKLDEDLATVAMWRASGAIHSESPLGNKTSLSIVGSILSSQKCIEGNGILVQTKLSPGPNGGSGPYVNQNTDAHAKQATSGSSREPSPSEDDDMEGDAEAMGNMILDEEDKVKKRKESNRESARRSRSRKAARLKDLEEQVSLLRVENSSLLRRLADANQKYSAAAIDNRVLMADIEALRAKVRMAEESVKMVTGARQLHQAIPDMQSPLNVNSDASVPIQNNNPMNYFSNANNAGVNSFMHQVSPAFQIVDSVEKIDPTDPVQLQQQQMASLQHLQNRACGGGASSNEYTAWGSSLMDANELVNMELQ
Method in brief: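 Transcription factors, each fused N-terminally to a polyhistidine tag and DsRed, were expressed in E. coli BL21-CodonPlus and purified on Ni–NTA. A custom Agilent array was made double-stranded by primer extension with Cy5-dUTP and blocked with 2% BSA. It was incubated with 200 nM protein in PBS, 2% BSA, salmon testes DNA and 50 µM zinc acetate at 25 °C for 1 h, then washed. The binding signal is per-feature fluorescence intensity (arbitrary units) read on an Axon 4000B scanner.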

| Sequence | binding signal |
| --- | --- |
| GGCATTGGGAATAGTTGACTAGGATTAAACAACATCCAAACGGAGTCACCTAGTGCAG | 3270 fluorescence intensity (a.u.) |
| AATCGATTCTCCACTACTCTCTCGTCATTGTTCCCATGTTCGGAGTCACCTAGTGCAG | 3270 fluorescence intensity (a.u.) |
| TTCTTCGACCGCACGACACCGCCACGTCGACAACCACCTCCGGAGTCACCTAGTGCAG | 15600 fluorescence intensity (a.u.) |
| TCCCACCAGAGCGCCACGTCCACACCCACCCACACACCACCGGAGTCACCTAGTGCAG | 3940 fluorescence intensity (a.u.) |
| TGGAGAGGGAACCAACAACAAACAACCAGCTGCCTCGCCGCGGAGTCACCTAGTGCAG | 47200 fluorescence intensity (a.u.) |
| GCCCGTCCATCCAACGCTCGGACACCACGCGGGGAGGCTCCGGAGTCACCTAGTGCAG | 3580 fluorescence intensity (a.u.) |
| TTAATCATGCATAAAGATGAACATTACATGCATGCATGGTCGGAGTCACCTAGTGCAG | 26000 fluorescence intensity (a.u.) |
| GGATGGCCTCCCCAGATGCGGTTGTTAGTTGTGAGGCCGCCGGAGTCACCTAGTGCAG | 24800 fluorescence intensity (a.u.) |
| GAATCTGGGAGCTGGAGCCCTGCCAAACAGGCCCTAATGTCGGAGTCACCTAGTGCAG | 4910 fluorescence intensity (a.u.) |
| TTGGAAAGTTCATTGCCACGTCCCAAATATATACTCTCTTCGGAGTCACCTAGTGCAG | 5750 fluorescence intensity (a.u.) |
| ACTTTGCAGCGAAGTAGCGTTGGGCTTTGGGCTCACGGGCCGGAGTCACCTAGTGCAG | 24900 fluorescence intensity (a.u.) |
| GGCTGCTTTGATTAACTCGATCATGAGTCAATGGACCATGCGGAGTCACCTAGTGCAG | 4910 fluorescence intensity (a.u.) |
| CCGCATCCTCTTCCACGCAAACGGCCTCTGCGCGCCGCCGCGGAGTCACCTAGTGCAG | 3290 fluorescence intensity (a.u.) |
| CTCTGTGCGCAAGTCCACACGTCAACCATGGCCGTACGTACGGAGTCACCTAGTGCAG | 7230 fluorescence intensity (a.u.) |
| GTATATTGGTGCAGCACCATATTGTGTTGTAGTGTAGTGACGGAGTCACCTAGTGCAG | 3360 fluorescence intensity (a.u.) |
| TATACAAGTGATCCAAACACGTAAGATAAGCTGGGGCCAGCGGAGTCACCTAGTGCAG | 24000 fluorescence intensity (a.u.) |
| ATAAATACTTAATTAATCATATAATAAGAGAGACTTTATTCGGAGTCACCTAGTGCAG | 15900 fluorescence intensity (a.u.) |
| GGTATGGGGACGATTTTGTACCCGCGATGGGTGTGAGTATCGGAGTCACCTAGTGCAG | 8740 fluorescence intensity (a.u.) |
| ACATCCCCGTACTATACGAGTCTACGACGATGACTATGCTCGGAGTCACCTAGTGCAG | 3150 fluorescence intensity (a.u.) |
| GGTCTCCGTCCAAGTCAATTAGTCAAAATTATGCATCTAGCGGAGTCACCTAGTGCAG | 3520 fluorescence intensity (a.u.) |
| GAACCCCATGCCCGCCACACGGATCCGCGCGCACCCATGGCGGAGTCACCTAGTGCAG | 4250 fluorescence intensity (a.u.) |
| TGCGAGGTGGTGGTGATTGCTTCGTCGGCTGTTGATTTCTCGGAGTCACCTAGTGCAG | 3300 fluorescence intensity (a.u.) |
| GCCGCTCGTCGACGTGGACATTCCCCGGCCCAACAACTGACGGAGTCACCTAGTGCAG | 8110 fluorescence intensity (a.u.) |

Given comma-delimited: entries from further up.
Sequence,binding signal
GGCATTGGGAATAGTTGACTAGGATTAAACAACATCCAAACGGAGTCACCTAGTGCAG,3270 fluorescence intensity (a.u.)
TGCGAGGTGGTGGTGATTGCTTCGTCGGCTGTTGATTTCTCGGAGTCACCTAGTGCAG,3300 fluorescence intensity (a.u.)
